Assay results taken from PubChem BioAssay AID1347075 (National Center for Advancing Translational Sciences (NCATS), 2019).
Among all 400,000 compounds or so, about 5,500 (1.4%) were called active. Inconclusive means that the source gave no clear call. Such entries were picked first, then a sample of the others. Calls follow the shape of the dose curve; as a rule, active = well fitted cell-killing curve with a large enough effect; inconclusive = small, poorly fitted or top-dose-only effect, or effect the other way; inactive = flat fitted curve, though single readings scatter. Potencies of inconclusive entries are doubtful fits and often do not repeat.

assay: qHTS assay for MDR1-selective chemotherapeutics: Primary screen using the parental adenocarcinoma cell KB-3-1; details: KB-3-1 viability, CellTiter-Glo ATP luminescence, 72 h; activity change, negative = cytotoxic: at 46.1 µM (top of the series); also: nearly all actives have a fitted effect of over 60% in size
Procedure, shortened: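 Luminescent ATP read-out (CellTiter-Glo) measures survival of drug-naive KB-3-1 cells after 72 h compound exposure at 37 °C. Titration series was screened from lowest to highest concentration, with DMSO vehicle plates as background controls.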
% is scaled to controls: 0 for no effect and ±100 for the full control effect; potency is read from the fitted curve at half-maximal effect.

Question: For `Cc1nc(Cl)sc1C(=O)Nc1cc(F)cc(F)c1`, which activity change, negative = cytotoxic is on record?
Answer: inconclusive: -7.67%

Question: For `CCc1ccc(OCC(=O)NC(NC(=S)Nc2ccc(C)cc2C)C(Cl)(Cl)Cl)cc1` (stereo not drawn), which Potency is on record?
Answer: inconclusive: 18.4 µM [cytotoxic, single point]

Question: Which Potency does the source give for `O=C1C=C(c2cc3ccccc3s2)C[C@@H](c2ccc(F)cc2)C1` here?
Answer: inactive

Question: Which Potency does the source give for `CCn1cc(/C=C(\NC(=O)c2ccccc2)C(=O)NCCN2CCOCC2)c2ccccc21` here?
Answer: inactive

Question: With `O=C(NC(=S)N1CCCCCC1)c1ccc(Cl)cc1Cl` as the compound, how does the Potency read?
Answer: inactive

Question: For `COc1ccc(C(=O)c2cc([N+](=O)[O-])ccc2N2CCN(C)CC2)cc1`, which Potency is on record?
Answer: active: 2.91 µM

Question: Which Potency does the source give for `CN(C)CCOCCOc1ccccc1-c1ccccc1` here?
Answer: inconclusive: 29.1 µM [cytotoxic, single point]

Question: Which Potency does the source give for `CCOC(=O)c1nn(-c2ccccc2C)c2nc(-c3ccc(C)cc3)c(C#N)c(=O)n12` here?
Answer: inactive

Question: Which Potency does the source give for `Cc1cccc2cc(CN(Cc3ccco3)C(=O)c3cccs3)c(=O)[nH]c12` here?
Answer: inconclusive: 1.84 µM [cytotoxic, partial curve, poor fit]

Question: For `C[N+](C)(C)c1ccc(/C=C/c2ccnc3ccccc23)cc1`, which Potency is on record?
Answer: active: 18.4 µM

Question: For `CCc1ccccc1OCc1nc2ccc(S(=O)(=O)N3CCOCC3)cc2[nH]1`, which Potency is on record?
Answer: inactive

Question: With `CCOc1ccc(C(=O)NCc2ccccc2OC)cc1` as the compound, how does the Potency read?
Answer: inconclusive: 29.1 µM [rising, single point]

Question: With `COc1cc(Cl)c(C)cc1NC(=O)CNC(=O)Cn1ccc2ccccc2c1=O` as the compound, how does the Potency read?
Answer: inactive

Question: Which Potency does the source give for `COCC1CCCCN1C(=O)c1cc(COc2ccc3ncccc3c2)on1` (stereo not drawn) here?
Answer: inconclusive: 1.64 µM [cytotoxic, partial curve, poor fit]

Question: With `CCc1ccc(/C=N/NC(=O)c2cc(C3CC3)nc3ccc(Br)cc23)s1` as the compound, how does the Potency read?
Answer: active: 4.61 µM

Question: With `CC(C)(C)OC(=O)N(CCc1ccccc1)Cc1ccccc1OCc1ccc(NC(=O)C2CCCC2)cc1` as the compound, how does the Potency read?
Answer: inactive

Question: Which Potency does the source give for `COc1ccc(-c2nnc(SCC(=O)Nc3ncc(C)s3)n2-c2ccccc2)cc1OC` here?
Answer: active: 20.6 µM

Question: With `O=C(O)C1CCCC2CN3CCc4c([nH]c5ccccc45)C3C(O)C21` (stereo not drawn) as the compound, how does the Potency read?
Answer: inactive

Question: For `S=C(NCCc1cccc(Cl)c1)NC1CCCCC1`, which Potency is on record?
Answer: inconclusive: 29.1 µM [cytotoxic, single point]

Question: Which Potency does the source give for `O=C(CCl)Nc1cccc2ncccc12` here?
Answer: inconclusive: 20.6 µM [cytotoxic, single point]

Question: With `Cc1nc(SCc2cc(=O)c3cccc(F)c3[nH]2)n[nH]1` as the compound, how does the Potency read?
Answer: inactive

Question: For `CCNC(=S)N(CCc1cccc(C)c1)Cc1cc2cc(OC)c(OC)cc2[nH]c1=O`, which Potency is on record?
Answer: inactive

Question: Which Potency does the source give for `COc1cc(NC(=S)Nc2cccnc2)cc(OC)c1OC` here?
Answer: inactive

Question: Which Potency does the source give for `CCN1CCN(c2ncc(C(=O)Nc3cc(Cl)ccc3OC)c3ccccc23)CC1` here?
Answer: inconclusive: 29.1 µM [cytotoxic, single point]

Question: With `CCN(C(=O)CSc1nc2ccccc2n1CCc1ccccc1)C1CCS(=O)(=O)C1` (stereo not drawn) as the compound, how does the Potency read?
Answer: inactive

Question: With `N/C(COc1cccc(Cl)c1)=N\NS(=O)(=O)c1ccccc1` as the compound, how does the Potency read?
Answer: inconclusive: 29.1 µM [cytotoxic, single point]

Question: Which Potency does the source give for `CN1CCCc2cc(/C=C/c3ccnc4ccccc34)ccc21` here?
Answer: inconclusive: 23.1 µM [cytotoxic, single point]

Question: Which Potency does the source give for `CC1CN(CCOc2ccccc2-c2ccccc2)CC(C)O1` (stereo not drawn) here?
Answer: inconclusive: 18.4 µM [cytotoxic, single point]

Question: For `O=C(Nc1ccn(CCCN2CCN(Cc3cccc4ccccc34)CC2)c(=O)n1)OCc1ccccc1`, which Potency is on record?
Answer: inconclusive: 18.4 µM [cytotoxic, single point]

Question: For `Cc1ccc(NC(=O)c2ccc(-n3cncn3)c([N+](=O)[O-])c2)cc1F`, which Potency is on record?
Answer: inactive

Question: Which Potency does the source give for `O=C1c2ccccc2C(=O)N1Cc1nn2c(-c3ccc(Cl)cc3)nnc2s1` here?
Answer: inconclusive: 18.4 µM [rising, partial curve, poor fit]

Question: For `COCCn1c(SCC(=O)Nc2ccc(C(C)=O)cc2)nc2c([nH]c3ccccc32)c1=O`, which Potency is on record?
Answer: inconclusive: 16.4 µM [cytotoxic, single point]

Question: Which activity change, negative = cytotoxic does the source give for `O=C(NNC(=O)c1cc2cc(OC(F)(F)F)ccc2[nH]1)c1cccc(C(F)(F)F)c1` here?
Answer: inconclusive: -7.88%

Question: With `CC(=O)c1ccccc1NS(=O)(=O)c1ccccc1Cl` as the compound, how does the Potency read?
Answer: inconclusive: 2.91 µM [cytotoxic, partial curve, poor fit]

Question: Which Potency does the source give for `O=C(O)CCCC(=O)Nc1ccc(C(=O)N2CCCCC2)cc1` here?
Answer: inconclusive: 23.1 µM [rising, single point]

Question: Which Potency does the source give for `CC(=O)OC[C@H]1O[C@@H](n2ncc(=O)[nH]c2=O)[C@H](OC(C)=O)[C@@H]1OC(C)=O` here?
Answer: active: 3.26 µM

Question: With `COc1cc(-c2cc(=O)c3c(O)c(OC)c(OC)c(O)c3o2)ccc1O` as the compound, how does the Potency read?
Answer: inconclusive: 29.1 µM [cytotoxic, single point]

Question: Which Potency does the source give for `O=c1cc(CSc2nnc(COc3ccccc3)n2-c2ccccc2)c2ccccc2[nH]1` here?
Answer: inactive

Question: Which Potency does the source give for `COc1cc2c(c(OC)c1OC)-c1ccc(OC)c(=O)cc1C(NC(=O)c1ccccc1)CC2` (stereo not drawn) here?
Answer: active: 0.0092 µM

Question: For `C#Cc1cccc(NC(=O)c2ccc(Cl)cc2Cl)c1`, which Potency is on record?
Answer: inactive

Question: Which Potency does the source give for `CC(CCc1ccccc1)NC(=O)CNC(=S)N(Cc1cccs1)C1CCCC1` (stereo not drawn) here?
Answer: inconclusive: 20.6 µM [cytotoxic, single point]

Question: For `CCOc1ccc(CCNC(=O)C(CC(C)C)N2Cc3ccccc3C2=O)cc1OCC` (stereo not drawn), which Potency is on record?
Answer: inconclusive: 9.2 µM [cytotoxic, partial curve, poor fit]

Question: With `CCC(=O)Nc1ccc2c(c1)OC[C@@H](C)N(Cc1cccc(F)c1)C[C@@H](C)[C@@H](OC)CN(C)C2=O` as the compound, how does the Potency read?
Answer: inactive

Question: For `Cc1c(CCOC(=O)CC23CC4CC(CC(C4)C2)C3)sc[n+]1CC(=O)c1ccccc1`, which Potency is on record?
Answer: inconclusive: 29.1 µM [cytotoxic, single point]

Question: Which Potency does the source give for `O=C(Nc1ccc(Cl)c(Cl)c1)Nc1nnc(-c2ccncc2)s1` here?
Answer: inconclusive: 11.6 µM [cytotoxic, partial curve]

Question: Which Potency does the source give for `S=C(NC1CCCCC1)N1CCc2ccccc2C1` here?
Answer: inconclusive: 29.1 µM [cytotoxic, single point]

Question: Which Potency does the source give for `COc1ccc(CN2CCN(C(=O)c3ccc(CNS(=O)(=O)c4ccc(C)cc4)cc3)CC2)c(OC)c1OC` here?
Answer: inconclusive: 16.4 µM [cytotoxic, single point]

Question: Which Potency does the source give for `CN1C(=O)C(O)(CC(=O)c2cccnc2)c2ccccc21` (stereo not drawn) here?
Answer: inactive

Question: Which Potency does the source give for `O=C(O)COn1c(-c2ccccc2)nc2ccc([N+](=O)[O-])cc21` here?
Answer: inactive

Question: Which activity change, negative = cytotoxic does the source give for `CCCCC(=O)Nc1nc(C)c(-c2csc(Nc3cc(OC)ccc3OC)n2)s1` here?
Answer: inconclusive: -31% [cytotoxic]

Question: For `COc1ccc(-c2nonc2NC(=O)c2oc3ccccc3c2C)cc1OC`, which Potency is on record?
Answer: inconclusive: 32.6 µM [cytotoxic, single point]

Question: Which Potency does the source give for `COc1ccc2c(c1)CC[C@@H]1[C@@H]2CC[C@]2(C)[C@@H](C(C)=O)C[C@@H]12` here?
Answer: inconclusive: 32.6 µM [cytotoxic, single point]

Question: With `Cc1ccc2nc(NCc3ccccc3)[nH]c2c1` as the compound, how does the Potency read?
Answer: active: 5.17 µM

Question: For `Clc1ccc(CN2C3=NCCCN3c3ccccc32)c(Cl)c1`, which Potency is on record?
Answer: inconclusive: 32.6 µM [cytotoxic, partial curve, poor fit]

Question: For `COc1ccc(-c2csc3ncnc(N4CCN(c5ccccc5Cl)CC4)c23)cc1`, which Potency is on record?
Answer: inconclusive: 18.4 µM [cytotoxic, partial curve, poor fit]

Question: For `N#CC(=C1C=C(Br)C(=NO)C=C1Cl)c1cccc2ccccc12`, which Potency is on record?
Answer: inconclusive: 23.1 µM [cytotoxic, single point]

Question: For `Cc1cc(C)n(-c2ccc(C(=O)N3CC(C)OC(C)C3)cc2)n1` (stereo not drawn), which Potency is on record?
Answer: inactive

Question: For `COc1ccc(NC2=C(NC(C)=O)C(=O)c3ccccc3C2=O)cc1`, which Potency is on record?
Answer: inconclusive: 14.6 µM [cytotoxic, single point]

Question: With `COc1cc([N+](=O)[O-])cc(/C=N/NC(=O)c2ccc(NC(=O)c3ccc(C)cc3)cc2)c1O` as the compound, how does the Potency read?
Answer: active: 5.17 µM

Question: With `CCc1nnc(SCC(=O)Nc2ccc(Cl)cc2F)c2cc3occc3n12` as the compound, how does the activity change, negative = cytotoxic read?
Answer: inconclusive: 0%

Question: For `OCCN1CCN(CC(O)COc2ccc(C34CC5CC(CC(C5)C3)C4)cc2)CC1` (stereo not drawn), which Potency is on record?
Answer: inconclusive: 18.4 µM [cytotoxic, single point]

Question: With `Cn1c(=O)n(C)c2cc(NS(=O)(=O)c3ccc(C(C)(C)C)cc3)ccc21` as the compound, how does the Potency read?
Answer: inactive

Question: With `Fc1ccccc1NC(=S)N1CCN(C/C=C/c2ccccc2)CC1` as the compound, how does the Potency read?
Answer: inconclusive: 29.1 µM [cytotoxic, single point]

Question: With `O=S(=O)(c1ccc(NC(=S)NN=C(Cc2ccccc2)Cc2ccccc2)cc1)N1CCOCC1` as the compound, how does the Potency read?
Answer: inconclusive: 29.1 µM [cytotoxic, single point]

Question: For `O=C(CCc1ccccc1)NNC(=O)COc1ccc(Br)cc1`, which Potency is on record?
Answer: inconclusive: 2.91 µM [rising, partial curve, poor fit]

Question: Which Potency does the source give for `COc1cc(C2c3c(-c4ccccc4O)n[nH]c3C(=O)N2Cc2ccco2)cc(OC)c1OC` (stereo not drawn) here?
Answer: inactive

Question: For `COc1cccc(CNC(=O)[C@H](C)NC(=O)N2CC(=O)Nc3ccccc32)c1`, which Potency is on record?
Answer: inactive

Question: Which Potency does the source give for `N#Cc1cccc(C#N)c1Oc1ccc(N)cc1` here?
Answer: inactive

Question: Which Potency does the source give for `Oc1ccccc1/C=N/NC(=S)NC1CC2C=CC1C2` (stereo not drawn) here?
Answer: inconclusive: 29.1 µM [cytotoxic, single point]

Question: For `Cc1ccc(NC(=O)c2cc(-c3cccs3)nc3ccccc23)nc1`, which Potency is on record?
Answer: inconclusive: 25.9 µM [cytotoxic, partial curve, poor fit]

Question: Which Potency does the source give for `CC(C)(C)C(=O)NNC(=O)c1cc2sccc2s1` here?
Answer: inconclusive: 32.6 µM [rising, partial curve, poor fit]

Question: For `COc1ccc(-c2cn(-c3ccc(Br)cc3)c3[n+]2CCS3)cc1`, which Potency is on record?
Answer: active: 8.2 µM

Question: With `COc1ccc(C(=O)NC2CCSC2=O)cc1` (stereo not drawn) as the compound, how does the Potency read?
Answer: inconclusive: 29.1 µM [cytotoxic, single point]
